SMILES strings stand for the structures.

The test system of this series is violacein production of C. violaceum CVO26. The experiment in a line: Quorum sensing bioassay: violacein production. Type of series: cell-based, Chromobacterium violaceum. Conditions: IC50 for growth inhibition / IC50 for violacein inhibition. The method, then:
The reporter strain C. violaceum CVO26 (CECT 5999) was used to screen the ability of the products to interfere with violacein production, a QS-regulated phenotype. C. violaceum CVO26 is a mini-Tn5 mutant that depends on an exogenous source of autoinducer (AI) (N-hexanoyl homoserine lactone, HHL) for violacein production. C. violaceum CVO26 was cultured in LB broth (Sigma-Aldrich) supplemented with 25 μg ml^-1 kanamycin. Inocula were prepared by dilution (1:100) of an overnight culture of the reporter strain [49]. One hundred microliters of inoculum with HHL (Sigma-Aldrich, 6 μM) or without the AI were added to 96-well plates containing 100 μl of the appropriate dilutions of the test products in LB. Thus, two sets of plates were prepared. One set of plates (without HHL) was used to evaluate the effect of the products on bacterial growth, whereas the other set of plates (with HHL) was used to evaluate their effect on violacein production. Both sets of plates were incubated at 30 °C with agitation (150 rpm) for 18 h.
Growth inhibition was quantified in the first batch of plates by re-suspending bacterial pellets and measuring the OD625. From the second batch of plates violacein was extracted and quantified. Briefly, the plates were dried overnight (60 °C) and violacein was re-solubilized by the addition of 200 μl of DMSO. The plates were shaken for 3 h and then the OD590 was determined.
To evaluate the effect of the alkyl triphenylphosphonium salts on QS-regulated phenotypes, an initial screening at the cut-off concentration of 100 μM was conducted with C. violaceum CVO26. The QS model of C. violaceum is relatively simple and consists of an acyl-homoserine lactone synthase (CviI) that produces the AI molecule N-hexanoyl homoserine lactone (HHL, strain ATCC 31532), or N-3-hydroxydecanoyl homoserine lactone (strain ATCC 12472) which is recognized by the cytoplasmic receptor CviR (Fig 4). The reporter strain CVO26 is a CviI::mini-Tn5 mutant of strain ATCC 31532 and thus recognizes HHL. CviR is a DNA-binding transcription factor that activates the expression of the genes encoding the production of violacein, the characteristic purple alkaloid that gives name to the species.
Indeed, the inhibitions observed in violacein production for long alkyl chains (10–18, 20) were clearly correlated to the biocidal effect exerted by these compounds, with ‘therapeutic ratios’ (IC50 for growth inhibition/IC50 for violacein inhibition) around 1, in general (Table 2). Note that, as the length of the hydrocarbon chain becomes shorter, this ratio increased (8–9). […] To evaluate these compounds in further detail, […] stock solutions were prepared […] to avoid the use of high concentrations of DMSO in the bioassays. […] Serial two-fold dilutions (500–3.9 μM) were assayed. Consequently, the highest amount of DMSO used in the assay was 0.25% (v/v). […] Growth inhibitory effects are only observed at 500 μM, particularly for compound 7 (Fig 6D).
Turning to `CCCCCCCCCCCCCC[P+](c1ccccc1)(c1ccccc1)c1ccccc1` [Compound 14], the “Ratio (GI/VI)” value was determined as 0.5.

For the molecule `CCCCCCC[P+](c1ccccc1)(c1ccccc1)c1ccccc1` [Compound 8, heptyl triphenylphosphonium bromide], the “Ratio (GI/VI)” value amounted to 2.8.

For `CCCCCCCCCCCCCCCCCCC[P+](c1ccccc1)(c1ccccc1)c1ccccc1` [Compound 18], the “Ratio (GI/VI)” value was found to be 1.1.

For `CCCCCCCCCCCCCCC[P+](c1ccccc1)(c1ccccc1)c1ccccc1` [Compound 15], the “Ratio (GI/VI)” value is 2.2.

`CCCCCCCCCCCC[P+](c1ccccc1)(c1ccccc1)c1ccccc1` [Compound 12]: the “Ratio (GI/VI)” value was found to be 1.6.

`c1ccc([P+](CCCCCCCCCCCC[P+](c2ccccc2)(c2ccccc2)c2ccccc2)(c2ccccc2)c2ccccc2)cc1` [Compound 20]: the “Ratio (GI/VI)” value was found to be 0.8.

For `CCCCCCCCC[P+](c1ccccc1)(c1ccccc1)c1ccccc1` [Compound 9], the “Ratio (GI/VI)” value is on record as 2.1.

Turning to `CCCCCCCCCCCCC[P+](c1ccccc1)(c1ccccc1)c1ccccc1` [Compound 13], the “Ratio (GI/VI)” value came out at 0.8.

In the case of `CCCCCCCCCC[P+](c1ccccc1)(c1ccccc1)c1ccccc1` [Compound 10], the “Ratio (GI/VI)” value is reported as 1.6.

Take `CCCCC[P+](c1ccccc1)(c1ccccc1)c1ccccc1` [Compound 7]: the “Ratio (GI/VI)” value is given as over 9.5.

Regarding `CCCCCCCCCCCCCCCCCC[P+](c1ccccc1)(c1ccccc1)c1ccccc1` [Compound 17], the “Ratio (GI/VI)” value is listed as 1.0.

Regarding `CCCCCCCCCCCCCCCC[P+](c1ccccc1)(c1ccccc1)c1ccccc1` [Compound 16], the “Ratio (GI/VI)” value is 0.8.

Turning to `C/C=C/C[P+](c1ccccc1)(c1ccccc1)c1ccccc1` [Compound 3], the “Ratio (GI/VI)” value is reported as over 5.4.

As to `CCCCN[P+](c1ccccc1)(c1ccccc1)c1ccccc1` [Compound 5], the “Ratio (GI/VI)” value is listed as over 3.7.

Turning to `BrCCCC[P+](c1ccccc1)(c1ccccc1)c1ccccc1` [Compound 4], the “Ratio (GI/VI)” value is over 3.5.

Take `CCCCCCCCCCC[P+](c1ccccc1)(c1ccccc1)c1ccccc1` [Compound 11]: the “Ratio (GI/VI)” value is given as 1.4.

Source of the values: paper PMC4405350, “From Broad-Spectrum Biocides to Quorum Sensing Disruptors and Mussel Repellents: Antifouling Profile of Alkyl Triphenylphosphonium Salts” (PLoS ONE, 2015).
